# Experimental data reported in patent US20170291905A1, “ARGININE […] INHIBITORS AND USES THEREOF” (Epizyme, Inc., priority 2014, published 2017).
# Sequences of proteins named here, by UniProt entry; tags and fusion partners are left off.
# UniProt Q99873, whole entry: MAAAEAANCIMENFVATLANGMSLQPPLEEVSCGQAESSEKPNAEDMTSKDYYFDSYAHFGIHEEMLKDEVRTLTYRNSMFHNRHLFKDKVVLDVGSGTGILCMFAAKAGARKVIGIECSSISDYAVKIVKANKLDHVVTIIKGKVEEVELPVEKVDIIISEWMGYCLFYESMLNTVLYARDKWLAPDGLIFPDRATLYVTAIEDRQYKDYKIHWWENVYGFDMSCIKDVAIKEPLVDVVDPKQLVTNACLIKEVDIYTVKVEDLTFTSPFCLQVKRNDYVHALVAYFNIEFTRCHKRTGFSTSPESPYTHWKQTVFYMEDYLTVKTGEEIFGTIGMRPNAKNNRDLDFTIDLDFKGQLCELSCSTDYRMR
# For at least one compound, name, drawing or mass did not settle the structure.
# Target: T1, PRMT1 (Homo sapiens, UniProt Q99873)
# T1 construct: host or cells: RKO cells
# Test: RKO methylation assay, In Cell Western (ICW) for mono-methyl arginine and DNA content
# Type: cell-based
# Settings: RKO cells, 72 hours, mono-methyl arginine signal normalised to DRAQ5, percent activation
# From the text: RKO Methylation Assay RKO adherent cells were purchased from ATCC (American Type Culture Collection), Manassas, Va., USA. DMEM/Glutamax medium, penicillin-streptomycin, heat inactivated fetal bovine serum, 0.05% trypsin and D-PBS were purchased from Life Technologies, Grand Island, N.Y., USA. Odyssey blocking buffer, 800CW goat anti-rabbit IgG (H+L) antibody, and Licor Odyssey infrared scanner were purchased from Licor Biosciences, Lincoln, Nebr., USA. Mono-methyl arginine antibody was purchased from Cell Signaling Technology, Danvers, Mass., USA. Methanol was purchased from VWR, Franklin, Mass., USA. 10% Tween 20 was purchased from KPL, Inc., Gaithersburg, Md., USA. DRAQ5 was purchased from Biostatus Limited, Leicestershire, UK. […] First, the ratio for each well was determined by: Each plate included fourteen control wells of DMSO only treatment (minimum activation) as well as fourteen control wells for maximum activation treated with 20 μM of a reference compound. The average of the ratio values for each control type was calculated and used to determine the percent activation for each test well in the plate. […] Percent activation was determined and EC30 curves were generated using triplicate wells per concentration of compound.
row,Structure (SMILES),PRMT1 RGG ICW EC30
1,"Cc1[nH]nc([C@H]2CC[C@@]3(CC2)CC(C)(C)CO3)c1CN(C)CCN [compound 51, N1-((3-((5s,8s)-3,3-dimethyl-1-oxaspiro[4.5]decan-8-yl)-5-methyl-1H-pyrazol-4-yl)methyl)-N1-methylethane-1,2-diamine]",168.6 nM
2,CNCCN(C)Cc1c[nH]nc1C1CCC(COC)(COCC2CCOCC2)CC1 (centres unmarked) [compound 45],109.5 nM
